Measured values published in the supplement of paper PMC8728848.
Some of the results follow.

Tests used:
Assay in all cases: glycan array binding signal (z-score within array); higher = stronger binding
Details in all cases: glycan notation: IUPAC condensed, linker removed
[1] = molecular target: Neu5Ac(a2-3)Gal(b1-3)GalNAc
How it was run: (§1)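 Glycan array binding is given as a within-array Z-score, which can be read as non-binding when negative. The arrays, 3228 of them, came from the Consortium for Functional Glycomics database and were retained only where the protein sequence was available. Z-scores were averaged across arrays of the same protein sequence at different concentrations or buffers and across linkers.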

[2] = molecular target: Neu5Ac(a2-3)Gal(b1-3)GalNAc(b1-3)Gal(a1-4)Gal(b1-4)Glc
How it was run: as §1

[3] = molecular target: Neu5Ac(a2-3)Gal(b1-3)GalNAc(b1-4)Gal(b1-4)Glc
How it was run: as §1

[4] = molecular target: Neu5Ac(a2-3)Gal(b1-3)GalNAc(b1-4)[Neu5Ac(a2-3)]Gal(b1-4)Glc
How it was run: as §1

[5] = molecular target: Neu5Ac(a2-3)Gal(b1-3)GalNAc(b1-4)[Neu5Ac(a2-8)Neu5Ac(a2-3)]Gal(b1-4)Glc
How it was run: as §1

[6] = molecular target: Neu5Ac(a2-3)Gal(b1-3)GalNAc6S
How it was run: as §1

[7] = molecular target: Neu5Ac(a2-3)Gal(b1-3)GlcNAc
How it was run: as §1

[8] = molecular target: Neu5Ac(a2-3)Gal(b1-3)GlcNAc(b1-2)Man
How it was run: as §1

[9] = molecular target: Neu5Ac(a2-3)Gal(b1-3)GlcNAc(b1-2)Man(a1-3)[GlcNAc(b1-4)][Neu5Ac(a2-3)Gal(b1-3)GlcNAc(b1-2)Man(a1-6)]Man(b1-4)GlcNAc(b1-4)GlcNAc
How it was run: as §1

[10] = molecular target: Neu5Ac(a2-3)Gal(b1-3)GlcNAc(b1-2)Man(a1-3)[Neu5Ac(a2-3)Gal(b1-3)GlcNAc(b1-2)Man(a1-6)]Man(b1-4)GlcNAc(b1-4)GlcNAc
How it was run: as §1

[11] = molecular target: Neu5Ac(a2-3)Gal(b1-3)GlcNAc(b1-2)[Neu5Ac(a2-3)Gal(b1-3)GlcNAc(b1-4)]Man(a1-6)[Neu5Ac(a2-3)Gal(b1-3)GlcNAc(b1-2)Man(a1-3)]Man(b1-4)GlcNAc(b1-4)GlcNAc
How it was run: as §1

[12] = molecular target: Neu5Ac(a2-3)Gal(b1-3)GlcNAc(b1-3)Gal(b1-3)GlcNAc
How it was run: as §1

[13] = molecular target: Neu5Ac(a2-3)Gal(b1-3)GlcNAc(b1-3)Gal(b1-4)GlcNAc
How it was run: as §1

[14] = molecular target: Neu5Ac(a2-3)Gal(b1-3)GlcNAc(b1-3)GalNAc
How it was run: as §1

[15] = molecular target: Neu5Ac(a2-3)Gal(b1-3)GlcNAc(b1-6)GalNAc
How it was run: as §1

[16] = molecular target: Neu5Ac(a2-3)Gal(b1-3)GlcNAc6S
How it was run: as §1

[17] = molecular target: Neu5Ac(a2-3)Gal(b1-3)[Fuc(a1-4)]GlcNAc
How it was run: as §1

[18] = molecular target: Neu5Ac(a2-3)Gal(b1-3)[Fuc(a1-4)]GlcNAc(b1-3)Gal(b1-3)[Fuc(a1-4)]GlcNAc
How it was run: as §1

[19] = molecular target: Neu5Ac(a2-3)Gal(b1-3)[Fuc(a1-4)]GlcNAc(b1-3)Gal(b1-4)[Fuc(a1-3)]GlcNAc
How it was run: as §1

[20] = molecular target: Neu5Ac(a2-3)Gal(b1-3)[GlcNAc(b1-6)]GalNAc
How it was run: as §1

[21] = molecular target: Neu5Ac(a2-3)Gal(b1-3)[Neu5Ac(a2-6)]GalNAc
How it was run: as §1

[22] = molecular target: Neu5Ac(a2-3)Gal(b1-3)[Neu5Ac(a2-6)]GlcNAc(b1-3)[Fuc(a1-3)[Gal(b1-4)]GlcNAc(b1-6)]Gal(b1-4)Glc
How it was run: as §1

[23] = molecular target: Neu5Ac(a2-3)Gal(b1-3)]Neu5Ac(a2-3)Gal(b1-4)]GlcNAc
How it was run: as §1

Neu5Ac(a2-3)Gal(b1-4)Glc = molecular target: Neu5Ac(a2-3)Gal(b1-4)Glc
How it was run: as §1

[24] = molecular target: Neu5Ac(a2-3)Gal(b1-4)GlcNAc
How it was run: as §1

[25] = molecular target: Neu5Ac(a2-3)Gal(b1-4)GlcNAc(b1-2)Man
How it was run: as §1

[26] = molecular target: Neu5Ac(a2-3)Gal(b1-4)GlcNAc(b1-2)Man(a1-3)[GlcNAc(b1-4)][Neu5Ac(a2-3)Gal(b1-4)GlcNAc(b1-2)Man(a1-6)]Man(b1-4)GlcNAc(b1-4)GlcNAc
How it was run: as §1

[27] = molecular target: Neu5Ac(a2-3)Gal(b1-4)GlcNAc(b1-2)Man(a1-3)[Neu5Ac(a2-3)Gal(b1-4)GlcNAc(b1-2)Man(a1-6)]Man(b1-4)GlcNAc(b1-4)GlcNAc
How it was run: as §1

[28] = molecular target: Neu5Ac(a2-3)Gal(b1-4)GlcNAc(b1-2)Man(a1-3)[Neu5Ac(a2-3)Gal(b1-4)GlcNAc(b1-2)Man(a1-6)]Man(b1-4)GlcNAc(b1-4)[Fuc(a1-6)]GlcNAc
How it was run: as §1

[29] = molecular target: Neu5Ac(a2-3)Gal(b1-4)GlcNAc(b1-2)Man(a1-3)[Neu5Ac(a2-6)Gal(b1-4)GlcNAc(b1-2)Man(a1-6)]Man(b1-4)GlcNAc(b1-4)GlcNAc
How it was run: as §1

[30] = molecular target: Neu5Ac(a2-3)Gal(b1-4)GlcNAc(b1-2)[Neu5Ac(a2-3)Gal(b1-4)GlcNAc(b1-4)]Man(a1-3)[GlcNAc(b1-4)][Neu5Ac(a2-3)Gal(b1-4)GlcNAc(b1-2)[Neu5Ac(a2-3)Gal(b1-4)GlcNAc(b1-6)]Man(a1-6)]Man(b1-4)GlcNAc(b1-4)GlcNAc
How it was run: as §1

[31] = molecular target: Neu5Ac(a2-3)Gal(b1-4)GlcNAc(b1-2)[Neu5Ac(a2-3)Gal(b1-4)GlcNAc(b1-4)]Man(a1-3)[GlcNAc(b1-4)][Neu5Ac(a2-3)Gal(b1-4)GlcNAc(b1-4)Man(a1-6)]Man(b1-4)GlcNAc(b1-4)GlcNAc
How it was run: as §1

[32] = molecular target: Neu5Ac(a2-3)Gal(b1-4)GlcNAc(b1-2)[Neu5Ac(a2-3)Gal(b1-4)GlcNAc(b1-6)]Man(a1-6)[Neu5Ac(a2-3)Gal(b1-4)GlcNAc(b1-2)Man(a1-3)][GlcNAc(b1-4)]Man(b1-4)GlcNAc(b1-4)GlcNAc
How it was run: as §1

[33] = molecular target: Neu5Ac(a2-3)Gal(b1-4)GlcNAc(b1-3)Gal
How it was run: as §1

[34] = molecular target: Neu5Ac(a2-3)Gal(b1-4)GlcNAc(b1-3)Gal(b1-3)GlcNAc
How it was run: as §1

[35] = molecular target: Neu5Ac(a2-3)Gal(b1-4)GlcNAc(b1-3)Gal(b1-4)GlcNAc
How it was run: as §1

[36] = molecular target: Neu5Ac(a2-3)Gal(b1-4)GlcNAc(b1-3)Gal(b1-4)GlcNAc(b1-2)Man(a1-3)[Neu5Ac(a2-3)Gal(b1-4)GlcNAc(b1-3)Gal(b1-4)GlcNAc(b1-2)Man(a1-6)]Man(b1-4)GlcNAc(b1-4)GlcNAc
How it was run: as §1

B1: his-Lectin-24A (Drosophila melanogaster) (protein)
chain: MFRLSVLVLNLLLVSHEFSAGTAKIEIQPLPALCNGYCFPTLKPVMEYVAIHQDKWNTCTEILANEARKDQIQLNIQLDALKADVSNIKASQLSKDEKLDRMEREQFAMHESLETINRYLTVKLDRTKLQLEAIKNTMDYMKAQMDGYFSAINGVQCLQPGFEKIGDRYFYIEEDVELNWLDAQAKCRRMGGHLASIKTKQEFDAIVEKLDDSKSYFLGVNENTKTGDFVSAASGKSCLYHEWGPGEPHHNNDQERCVSILRKLMHVGNCTYEKRFICQYGI
glycan array binding signal (z-score) [1]: 0.679 | glycan array binding signal (z-score) [2]: 0.771 | glycan array binding signal (z-score) [3]: -2.7 | glycan array binding signal (z-score) [4]: -0.129 | glycan array binding signal (z-score) [5]: -0.976 | glycan array binding signal (z-score) [6]: 0.385 | glycan array binding signal (z-score) [7]: 1.27 | glycan array binding signal (z-score) [8]: -0.65 | glycan array binding signal (z-score) [9]: 0.319 | glycan array binding signal (z-score) [10]: -0.522 | glycan array binding signal (z-score) [11]: -0.447 | glycan array binding signal (z-score) [12]: -2.22 | glycan array binding signal (z-score) [13]: -0.473 | glycan array binding signal (z-score) [14]: 0.022 | glycan array binding signal (z-score) [15]: -1.18 | glycan array binding signal (z-score) [16]: -0.858 | glycan array binding signal (z-score) [17]: -0.669 | glycan array binding signal (z-score) [18]: -0.561 | glycan array binding signal (z-score) [19]: -0.437 | glycan array binding signal (z-score) [20]: -0.036 | glycan array binding signal (z-score) [21]: -0.881 | glycan array binding signal (z-score) [22]: -0.346 | glycan array binding signal (z-score) [23]: -0.55 | glycan array binding signal (z-score) (Neu5Ac(a2-3)Gal(b1-4)Glc): 0.289 | glycan array binding signal (z-score) [24]: 0.165 | glycan array binding signal (z-score) [25]: -1.37 | glycan array binding signal (z-score) [26]: -0.23 | glycan array binding signal (z-score) [27]: -0.321 | glycan array binding signal (z-score) [28]: 0.161 | glycan array binding signal (z-score) [29]: 0.85 | glycan array binding signal (z-score) [30]: 2.26 | glycan array binding signal (z-score) [31]: 0.486 | glycan array binding signal (z-score) [32]: -0.362 | glycan array binding signal (z-score) [33]: -1.34 | glycan array binding signal (z-score) [34]: 0.115 | glycan array binding signal (z-score) [35]: -0.872 | glycan array binding signal (z-score) [36]: -0.24
